PubChem BioAssay AID1259254 | NCATS, 2017

Purpose: 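Gene knock-downs that lead to re-replication, shown by excess G2 DNA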 (primary screen)
Cells: human HCT116 colorectal cancer cells
Knock-down reagent: single siRNA against human genes
Duration: 3 days
Measured: 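Imaged Hoechst DNA stain sorts each cell into a cycle phase by DNA amount; per plate, G2 fraction set to 0% for non-targeting and 100% for GMNN siRNA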
Direction: G2 robust z-score: higher = more G2 cells, more excess DNA replication
Active means: 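Active siRNAs have a G2 robust z of 5 or more median absolute deviations over the median, which in these data means about 38% or higher of GMNN control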
The whole screen tested about 59,000 reagents; shown is a part drawn at random. About 1,550 of them (2.6%) were called active. 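G2 share is only a proxy for re-replication; each gene was hit by three separate siRNAs, and active genes were retested.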 Reagents against one gene are numbered here. Not all columns of the deposit are shown. Not given: the amount of reagent.

CEL #1 showed G2 robust z-score 1.24; inactive.
CEL #2 showed G2 robust z-score -0.984; inactive.
CEL #3 showed G2 robust z-score 3.24; inactive.
After knock-down of PCED1B #1, the screen gave G2 robust z-score -0.581; inactive.
PCED1B #2 showed G2 robust z-score -0.474; inactive.
After knock-down of PCED1B #3, the record shows G2 robust z-score 0.269; inactive.
Depletion of ABCB1 #1 came out at: G2 robust z-score -0.614; inactive.
Silencing of ABCB1 #2 resulted in: G2 robust z-score -0.62; inactive.
After knock-down of ABCB1 #3, the screen gave G2 robust z-score -0.937; inactive.
With knock-down of KRTAP7-1 #1 the results were G2 robust z-score -0.651; inactive.
After knock-down of KRTAP7-1 #2, the screen gave G2 robust z-score 0.354; inactive.
After knock-down of KRTAP7-1 #3, the record shows G2 robust z-score 0.522; inactive.
Silencing of GBP2 #1 gave: G2 robust z-score 0.489; inactive.
Silencing of GBP2 #2 came out at: G2 robust z-score 0.666; inactive.
For GBP2 #3, the values are G2 robust z-score 1.62; inactive.

No new results follow: 4 of the entries above.
ABCB1 #1: G2 robust z-score = -0.614; Call = inactive
ABCB1 #2: G2 robust z-score = -0.62; Call = inactive
ABCB1 #3: G2 robust z-score = -0.937; Call = inactive
KRTAP7-1 #1: G2 robust z-score = -0.651; Call = inactive

The list goes on:
With knock-down of H2BC9 #1, the screen gave G2 robust z-score 1.62; inactive.
Knock-down of H2BC9 #2 resulted in: G2 robust z-score -1.11; inactive.
With knock-down of H2BC9 #3, the record shows G2 robust z-score 0.09; inactive.
With knock-down of SARM1 #1 the results were G2 robust z-score -0.541; inactive.
SARM1 #2 scored G2 robust z-score -0.831; inactive.
SARM1 #3 showed G2 robust z-score 2.02; inactive.
CXXC5 #1 showed G2 robust z-score -0.87; inactive.
After knock-down of CXXC5 #2, the record shows G2 robust z-score 0.0883; inactive.
After knock-down of CXXC5 #3, the record shows G2 robust z-score 0.0105; inactive.
TXN2 #1 scored G2 robust z-score 3.15; inactive.
Against TXN2 #2, the entry reads G2 robust z-score 2.68; inactive.
After knock-down of TXN2 #3, the screen gave G2 robust z-score 5.47; active.
FSTL4 #1 gave G2 robust z-score -0.478; inactive.
Against FSTL4 #2, the entry reads G2 robust z-score -1.07; inactive.
With knock-down of FSTL4 #3, the record shows G2 robust z-score 2.57; inactive.
